Results are given in words; binding and its absence hold for the method and conditions named. In cells and extracts the contact can be indirect. Some entries that bind do so weakly or less than the wild type.

In this experiment the target is T1, Toll-like receptor 4 (bovine (endogenous in bull sperm)) (UniProt Q9GL65).
T1 sequence: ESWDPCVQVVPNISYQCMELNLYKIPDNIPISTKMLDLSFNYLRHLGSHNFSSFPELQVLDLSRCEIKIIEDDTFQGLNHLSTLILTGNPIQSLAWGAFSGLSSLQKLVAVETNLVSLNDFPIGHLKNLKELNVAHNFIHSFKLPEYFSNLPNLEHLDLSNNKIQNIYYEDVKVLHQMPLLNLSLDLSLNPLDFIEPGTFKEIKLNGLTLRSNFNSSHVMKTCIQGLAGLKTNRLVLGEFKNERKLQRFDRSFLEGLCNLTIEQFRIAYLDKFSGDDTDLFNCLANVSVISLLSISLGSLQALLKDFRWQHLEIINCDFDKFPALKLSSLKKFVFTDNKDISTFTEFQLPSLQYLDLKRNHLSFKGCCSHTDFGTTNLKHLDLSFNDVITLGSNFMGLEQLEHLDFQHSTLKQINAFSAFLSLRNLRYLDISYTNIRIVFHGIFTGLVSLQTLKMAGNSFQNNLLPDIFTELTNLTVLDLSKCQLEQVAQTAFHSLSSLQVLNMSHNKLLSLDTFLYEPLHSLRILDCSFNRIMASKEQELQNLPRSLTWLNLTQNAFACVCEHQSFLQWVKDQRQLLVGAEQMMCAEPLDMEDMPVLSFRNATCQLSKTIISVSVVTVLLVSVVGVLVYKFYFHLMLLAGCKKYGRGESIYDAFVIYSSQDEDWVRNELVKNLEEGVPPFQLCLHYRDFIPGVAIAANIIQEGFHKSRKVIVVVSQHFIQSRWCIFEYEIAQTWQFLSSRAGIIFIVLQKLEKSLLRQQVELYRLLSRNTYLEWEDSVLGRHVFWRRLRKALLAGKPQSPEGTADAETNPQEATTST
As to the kind of experiment: co-IP; anti-TLR4 monoclonal antibodies immobilised on a HiTrap Protein A HP column; bull sperm lysate in 20 mM sodium phosphate buffer pH 7.0 passed through; eluted with 0.1 M citric acid; eluate analysed by non-reducing SDS-PAGE and Western blot for PRDX5 and PRDX6.

B1: peroxiredoxin 5 (enzyme, Bos taurus (endogenous in bull sperm), UniProt Q9BGI1 58-219, looked up)
chain: MAPIKVGDAIPSVEVFEKEPGNKVNLAELFKGKKGVLFGLPGAFTPGCSKTHLPGFVEQADALKAKGIQVVACLTVNDVFVTEEWARAHKAEGKVRLLADPSGTFGKETDLLLDDSLLFLFGNHRLKRFSMVIEDGIVKSLNVEPDGTGLTCSLAPNILSQL
notes: peroxiredoxin 5 (PRDX5) from Bos taurus, endogenous in bull sperm; runs as a single 17.5 kDa band in standard SDS-PAGE; The oligomers are disulfide-linked, as they appear only in non-reducing SDS-PAGE; also called PRDX5; source: endogenous, bull sperm lysate (native protein extraction; fresh or cryopreserved sperm)
For B1, the binding result was “binds”.

B2: peroxiredoxin 6 (enzyme, bovine (endogenous in bull sperm), UniProt O77834 1-224, looked up)
chain: MPGGLLLGDEAPNFEANTTIGRIRFHDYLGDSWGILFSHPRDFTPVCTTELGRAAKLAPEFAKRNVKMIALSIDSVEDHLAWSKDINAYNGEEPTEKLPFPIIDDKNRDLAIQLGMLDPAEKDEKGMPVTARVVFIFGPDKKLKLSILYPATTGRNFDEILRVIISLQLTAEKRVATPVDWKNGDSVMVLPTIPEEEAKKLFPKGVFTKELPSGKKYLRYTPQP
notes: peroxiredoxin 6 (PRDX6), bovine, endogenous in bull sperm; runs as a single 25 kDa band in standard SDS-PAGE; The oligomers are disulfide-linked, as they appear only in non-reducing SDS-PAGE; also called PRDX6; source: endogenous, bull sperm lysate (native protein extraction; fresh or cryopreserved sperm)
Turning to B2, the binding result is recorded as “binds”.

Source of the values: publication PMC11714857, “PRDX5 and PRDX6 translocation and oligomerization in bull sperm: a response to cryopreservation-induced oxidative stress” (Cell Communication and Signaling : CCS, 2025).
